Assay results published in PubChem BioAssay AID493014 (National Center for Advancing Translational Sciences (NCATS), 2011).
Hit rate of the full screen: of about 340,000 compounds, about 170 (0.05%) were called active. Inconclusive results, whose numbers are uncertain, are shown with a selection of clear calls. The call rests on the fitted dose curve; in most records, active means well fitted inhibition curve with a large enough effect in the signal ratio, with a control signal flat (not every such curve was filed as active); inconclusive means small, poorly fitted or top-dose-only effect, or effect the other way, or a change in a side signal; inactive means flat fitted curve, though single readings scatter; the % refers to the signal ratio. Potencies of inconclusive entries are doubtful fits and often do not repeat.

Assay: qHTS Assay to Find Inhibitors of Chronic Active B-Cell Receptor Signaling;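 on activity change, negative = inhibition: plate controls were basal doxycycline-induced cells for no effect and cells given 10 µM MG132 for full effect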
Settings: ABC-DLBCL IkBa-CBG/CBR reporter, luminescence ratio (green luciferase fused to IkBa over red control in TMD8 lymphoma cells), 4 h; activity change, negative = inhibition: at 46.1 µM (top of the series)
Outline: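 TMD8 human ABC-DLBCL cells with doxycycline-inducible IκBα–green luciferase fusion and unfused red luciferase, in 0.5% FBS medium; compounds up to 46 uM, 4 h at 37C. Green/red luminescence ratio, filter-overlap corrected, fitted to concentration-response curves.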
Potency means the concentration at half of the fitted maximal effect.

| Structure (SMILES) | activity change, negative = inhibition | Potency |
| --- | --- | --- |
| O=C(O)CN=CC1=C(O)CC(c2ccccc2)CC1=O (configuration not stated) | inactive | – |
| COC(=O)C1CCN(C(=O)CSc2nnc(-c3ccccc3)o2)CC1 | – | inconclusive: 2.06 µM [falling, partial curve, poor fit] |
| NC(=O)C1CC(=O)N(c2ccc(OCc3ccc(F)cc3)cc2)C1 (configuration not stated) | inconclusive: -0.616% | – |
| COc1ccc(-n2c(SCC(=O)N3CCCC(C)C3)nnc2-c2cccnc2)cc1 (configuration not stated) | inconclusive: 4.5% | – |
| COc1cc2nc(NCC3CCCO3)n3nc(-c4cccnc4)nc3c2cc1OC (configuration not stated) | inconclusive: 6.68% | – |
| CCN(CC)C(=O)Cn1cc(C(=O)C(=O)NCc2ccccn2)c2ccccc21 | – | inconclusive: 7.94 µM [falling, partial curve] |
| Cc1ccc(S(=O)(=O)NCC(=O)N/N=C/c2ccc(Cl)cc2Cl)cc1 | inactive | – |
| O=C(Cn1nnc2ccccc2c1=O)NCCc1ccc(F)cc1 | inconclusive: 2.86% | – |
| CCCCC(=O)Nc1cccc(-c2cn3ccsc3n2)c1 | inconclusive: -12.7% | – |
| O=C(Nc1nc(-c2ccccn2)cs1)c1ccccc1-n1cnnn1 | inconclusive: -10.6% | – |
| O=C(OCc1cc(=O)n2ccsc2n1)c1ccc(OC(F)F)cc1 | inactive | – |
| O=C(CNC(=O)c1ccc(Cl)cc1)OCc1nc2ccccc2s1 | inconclusive: -0.202% | – |
| COc1ccccc1N=C1NC(=O)/C(=C/c2ccc(N(C)C)cc2)S1 | – | inconclusive: 12.6 µM [falling, partial curve] |
| c1ccc(-c2cnc(CSc3nnc4ccccn34)o2)cc1 | – | inconclusive: 16.4 µM [falling, partial curve, poor fit] |
| Cc1ccc(S(=O)(=O)Cc2ccc(C(=O)NCCCN3CCN(C)CC3)o2)cc1 | inconclusive: -0.767% | – |
| CCN(CC)CCNC(=O)c1ccc(NC(=O)c2cccc(S(=O)(=O)Nc3ccc(C)cc3)c2)cc1 | inactive | – |
| CCCn1c2ccccc2c2cnn(CC(=O)NCCOC)c(=O)c21 | inconclusive: -0.373% | – |
| COc1ccc(-c2cc(C(=O)NC(Cc3cc4ccccc4[nH]3)C(=O)O)c(C)o2)cc1OC (configuration not stated) | inconclusive: 42.7% | – |
| Cc1nc(/N=C(\N)NC(=O)c2ccccc2)nc2ccccc12 | – | inconclusive: 1.16 µM [falling, partial curve] |
| N#CCC(=O)N/N=C/c1ccc(OCC(=O)Nc2ccc(F)cc2)cc1 | inconclusive: 6.34% | – |
| O=C(NNC(=O)c1cc(-c2ccncc2)nc2ccccc12)Nc1ccc(F)cc1 | inactive | – |
| CCCCn1nc(C(=O)Nc2cccc(C(=O)NC3CC3)c2)c2ccccc2c1=O | inconclusive: -1.81% | – |

Rewritten as comma-separated lines: two of the compounds above.
Structure (SMILES),"activity change, negative = inhibition",Potency
COc1ccc(-n2c(SCC(=O)N3CCCC(C)C3)nnc2-c2cccnc2)cc1 (configuration not stated),inconclusive: 4.5%,–
COc1cc2nc(NCC3CCCO3)n3nc(-c4cccnc4)nc3c2cc1OC (configuration not stated),inconclusive: 6.68%,–
